PubChem BioAssay AID1053208, Peter MacCallum Cancer Centre – 2014
Test: 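Synthetic lethal interactions between gene loss and doxorubicin in osteosarcoma cells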 (primary screen). Cells: mouse osteosarcoma cells, early-passage culture from an engineered mouse model of fibroblastic bone tumour. Reagents: siRNA pool against mouse genes, 40 nM. Timing: about 120 h (48 h before drug, then 72 h with drug). Challenge: doxorubicin 100 nM for 72 h, roughly 30-40% inhibitory dose. Detection: 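Luminescent ATP signal taken as viability with or without 100 nM doxorubicin for 72 h; mean of two wells set against non-targeting siRNA and turned into robust z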. Direction: viability z-score with doxorubicin and doxorubicin viability vs non-targeting: higher = more viable cells under doxorubicin; viability z-score without drug: higher = more viable cells with knock-down alone; z-score of drug to no-drug ratio: higher = less drug sensitisation by knock-down. Rule for the call: 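a pool counts as active when its viability z-score with doxorubicin is -2 or below and its z-score without drug lies between -2 and 2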.
The deposit covers about 17,000 reagents; below is a random part of them. 788 of all reagents (4.7%) count as active. 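Calls rest on z-score classes alone; an extra cut-off of viability at most 70% of control was not applied to them.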 Entries without a mark were called inactive. The numbers tell different reagents against one gene apart.

| combined z-score class | viability z-score with doxorubicin | viability z-score without drug | z-score of drug to no-drug ratio | doxorubicin viability vs non-targeting | gene | reagent |
| --- | --- | --- | --- | --- | --- | --- |
| no change with or without drug | 0.67 | -1.52 | 2.02 | 1 | Zcchc7 (zinc finger, CCHC domain containing 7) | 1 |
| no change with or without drug | -0.22 | 0 | -0.11 | 0.92 | Zcchc7 (zinc finger, CCHC domain containing 7) | 2 |
| no change with or without drug | 0.56 | 1.18 | -0.11 | 0.99 | Serpinb5 (serine (or cysteine) peptidase inhibitor, clade B, member 5) | 1 |
| no change with or without drug | -1.35 | -0.17 | -1.24 | 0.82 | Zfp39 (zinc finger protein 39) | 1 |
| no change with or without drug | 0.11 | 0.17 | 0.11 | 0.95 | Tmt1b (thiol methyltransferase 1B) | 1 |
| no change with or without drug | 1.46 | 0.34 | 1.35 | 1.07 | Kcnab1 | 1 |
| no change with or without drug | 0.22 | 0 | 0.34 | 0.96 | Crip1 (cysteine-rich protein 1) | 1 |
| high cell count with doxorubicin only | 2.14 | 1.18 | 1.46 | 1.13 | Thg1l (tRNA-histidine guanylyltransferase 1-like (S. cerevisiae)) | 1 |
| no change with or without drug | 0.34 | -1.18 | 1.35 | 0.97 | Hes6 (hairy and enhancer of split 6) | 1 |
| low cell count without drug only | -1.57 | -2.19 | 0 | 0.8 | Rack1 (receptor for activated C kinase 1) | 1 |
| no change with or without drug | 0.67 | -0.51 | 1.24 | 1 | Ly6a (lymphocyte antigen 6 family member A) | 1 |
| high without drug; low with doxorubicin | -2.25 | 2.02 | -3.26 | 0.74 | Tlr3 (toll-like receptor 3) | 1 |
| no change with or without drug | -0.67 | -0.67 | -0.11 | 0.88 | Ier3 (immediate early response 3) | 1 |
| low cell count with doxorubicin only (active) | -2.36 | -0.34 | -2.25 | 0.73 | Grhl2 (grainyhead like transcription factor 2) | 1 |
| no change with or without drug | 0.45 | -0.17 | 0.67 | 0.98 | Rab5c (RAB5C, member RAS oncogene family) | 1 |
| no change with or without drug | -0.22 | 0.34 | -0.34 | 0.92 | Il1rn (interleukin 1 receptor antagonist) | 1 |
| high cell count with doxorubicin only | 2.14 | 1.52 | 1.24 | 1.13 | Glrp1 (glutamine repeat protein 1) | 1 |
| high cell count without drug only | 0.9 | 2.19 | -0.45 | 1.02 | Zfp423 (zinc finger protein 423) | 1 |
| no change with or without drug | 1.57 | 1.18 | 0.9 | 1.08 | Mc5r (melanocortin 5 receptor) | 1 |
| low cell count with doxorubicin only (active) | -2.47 | 0.17 | -2.59 | 0.72 | Slc18a3 | 1 |
| no change with or without drug | -1.46 | -1.18 | -0.67 | 0.81 | Khdrbs1 | 1 |
| no change with or without drug | 0.67 | 0 | 0.79 | 1 | Eif3m (eukaryotic translation initiation factor 3, subunit M) | 1 |
| low cell count with doxorubicin only (active) | -2.14 | -1.01 | -1.57 | 0.75 | Gc (vitamin D binding protein) | 1 |
| no change with or without drug | -0.67 | 0.51 | -0.9 | 0.88 | Arid5b (AT-rich interaction domain 5B) | 1 |
| high cell count with and without drug | 3.48 | 2.02 | 2.14 | 1.25 | Lce1a2 (late cornified envelope 1A2) | 1 |
| no change with or without drug | -0.22 | -0.51 | 0.22 | 0.92 | Ephb2 (Eph receptor B2) | 1 |
| no change with or without drug | 0.22 | -0.17 | 0.45 | 0.96 | Ecpas (Ecm29 proteasome adaptor and scaffold) | 1 |
| no change with or without drug | 0.11 | -1.52 | 1.35 | 0.95 | Ccdc142 (coiled-coil domain containing 142) | 1 |
| no change with or without drug | 1.01 | 1.35 | 0.22 | 1.03 | Hip1r (huntingtin interacting protein 1 related) | 1 |
| no change with or without drug | -0.9 | 0.84 | -1.35 | 0.86 | Agtrap (angiotensin II, type I receptor-associated protein) | 1 |
| no change with or without drug | 0.34 | -1.18 | 1.35 | 0.97 | Il18r1 (interleukin 18 receptor 1) | 1 |
| no change with or without drug | -1.35 | -0.17 | -1.24 | 0.82 | Or4p18 (olfactory receptor family 4 subfamily P member 18) | 1 |
| no change with or without drug | -0.67 | -0.51 | -0.22 | 0.88 | Or6c76b (olfactory receptor family 6 subfamily C member 76B) | 1 |
| no change with or without drug | 1.12 | -0.17 | 1.46 | 1.04 | Efcab8 (EF-hand calcium binding domain 8) | 1 |
| no change with or without drug | 0.45 | 1.18 | -0.22 | 0.98 | Klra15 (killer cell lectin-like receptor, subfamily A, member 15) | 1 |
| no change with or without drug | 0.67 | -0.17 | 0.9 | 1 | Ube4a (ubiquitination factor E4A) | 1 |
